Values from PubChem BioAssay AID1259425 (University of Nebraska Medical Center, 2018).

Screen: 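Seek colon cancer weak points whose silencing resembles KSR1 loss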 (primary screen)
Cells: HCT116 human colon cancer cells
Reagent: siRNA pool against human genes, 50 nM siRNA
Measured: 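After 50 nM siRNA pool, branched-DNA assay measures six marker transcripts per well, minus blank, normalised to the geometric mean of two housekeeping transcripts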
Direction: BNIP3L mRNA: higher = more BNIP3L transcript after knockdown; NDRG1 mRNA: higher = more NDRG1 transcript after knockdown; BNIP3 mRNA: higher = more BNIP3 transcript after knockdown; ALDOC mRNA: higher = more ALDOC transcript after knockdown; ACSL5 mRNA: higher = more ACSL5 transcript after knockdown
The deposit covers about 14,000 reagents; below is an unselected part. A reagent listed more than once was tested more than once; the source does not tell the runs apart. The record does not give: the time to read-out.

gene symbol,"BNIP3L mRNA, set 1","NDRG1 mRNA, set 1","BNIP3 mRNA, set 1","ALDOC mRNA, set 1","ACSL5 mRNA, set 1"
IGFBP4 (insulin like growth factor binding protein 4),0.073,0.185,0.332,0.01,0.116
RTCA (RNA 3'-terminal phosphate cyclase),0.0658,0.148,0.313,0.0149,0.082
GRK2 (G protein-coupled receptor kinase 2),0.188,0.426,0.356,0.00411,0.342
GRK2 (G protein-coupled receptor kinase 2),0.142,0.413,0.358,0.0181,0.197
GPR135 (G protein-coupled receptor 135),0.0708,0.056,0.365,0.00938,0.0657
"ERCC6 (ERCC excision repair 6, chromatin remodeling factor)",0.209,0.148,0.22,0.0469,0.209
EMX2 (empty spiracles homeobox 2),0.0776,0.433,0.303,0.00909,0.248
TNFSF15 (TNF superfamily member 15),0.108,0.114,0.179,0.0277,0.165
ATP6V0D1 (ATPase H+ transporting V0 subunit d1),0.158,0.232,0.362,0.0683,0.207
LRRC61 (leucine rich repeat containing 61),0.165,0.156,0.276,0.0202,0.218
TMSB4Y (thymosin beta 4 Y-linked),0.0651,0.158,0.243,0.0317,0.245
"ACP5 (acid phosphatase 5, tartrate resistant)",0.0592,0.429,0.232,0.0442,0.131
TAS2R40 (taste 2 receptor member 40),0.142,0.166,0.307,0.0472,0.244
ARHGEF4 (Rho guanine nucleotide exchange factor 4),0.112,0.155,0.312,0.0424,0.145
ARVCF (ARVCF delta catenin family member),0.0912,0.109,0.272,0.0296,0.0841
CEMIP2 (cell migration inducing hyaluronidase 2),0.122,0.389,0.467,0.0268,0.282
ACBD3 (acyl-CoA binding domain containing 3),0.154,0.224,0.448,0.143,0.279
SPATS2L (spermatogenesis associated serine rich 2 like),0.101,0.502,0.503,0.059,0.204
DDIT4 (DNA damage inducible transcript 4),0.0742,0.323,0.256,0.0222,0.237
MRPL2 (mitochondrial ribosomal protein L2),0.136,2.12,0.222,0.0326,0.194
HS3ST3A1 (heparan sulfate-glucosamine 3-sulfotransferase 3A1),0.164,0.564,0.319,0.0328,0.244
FAM120C (family with sequence similarity 120 member C),0.147,0.173,0.382,0.0167,0.14
PALM (paralemmin),0.177,0.176,0.264,0.0341,0.0978
BMP4 (bone morphogenetic protein 4),0.0899,0.0625,0.181,0.0283,0.0971
SPTLC2 (serine palmitoyltransferase long chain base subunit 2),0.146,0.165,0.382,0.0407,0.184
CHMP5 (charged multivesicular body protein 5),0.107,0.39,0.354,0.0217,0.229
SUOX (sulfite oxidase),0.131,0.362,0.329,0.0495,0.155
CIAO2A (cytosolic iron-sulfur assembly component 2A),0.174,0.206,0.211,0.079,0.247
GBP3 (guanylate binding protein 3),0.0876,0.379,0.232,0.0223,0.171
ARCN1 (archain 1 coat protein complex I subunit delta),0.736,1.65,0.816,0.048,0.297
PLEKHF1 (pleckstrin homology and FYVE domain containing 1),0.258,0.131,0.373,0.0686,0.157
AMACR (alpha-methylacyl-CoA racemase),0.123,0.208,0.271,0.0231,0.21
GPR83 (G protein-coupled receptor 83),0.246,0.378,0.343,0.0312,0.274
PTPN23 (protein tyrosine phosphatase non-receptor type 23),0.262,0.583,0.715,0.0202,0.333

4 entries from above, set out differently:
gene symbol	BNIP3L mRNA, set 1	NDRG1 mRNA, set 1	BNIP3 mRNA, set 1	ALDOC mRNA, set 1	ACSL5 mRNA, set 1
TAS2R40 (taste 2 receptor member 40)	0.142	0.166	0.307	0.0472	0.244
ARHGEF4 (Rho guanine nucleotide exchange factor 4)	0.112	0.155	0.312	0.0424	0.145
ARVCF (ARVCF delta catenin family member)	0.0912	0.109	0.272	0.0296	0.0841
CEMIP2 (cell migration inducing hyaluronidase 2)	0.122	0.389	0.467	0.0268	0.282
